Taken from: PubChem BioAssay AID720710 (VTT Finland, 2013)

Test: 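Knock-downs that leave cyclin E-high cells sensitive to replication stress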 (primary screen)
System: human U-2 OS bone cancer cells, parental and a cyclin E (CCNE1) overexpressing line
Reagent: single siRNA against human genes, 1 µM siRNA in the printed spot mix
Time to read-out: 67 h
Treatment: half the arrays: hydroxyurea 2 mM for 16 h, then 3 h recovery; other arrays untreated
Measurement: 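EdU click signal imaged per DAPI-stained nucleus at 67 h; each spot divided by its subgrid median, then z-scored relative to non-targeting control spots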
Reading the numbers: EdU z-score, cyclin E line, hydroxyurea and EdU z-score, parental, hydroxyurea and EdU z-score, cyclin E line, untreated and EdU z-score, parental, untreated: higher = more DNA synthesis than non-targeting controls
Here is a random part of about 1,380 deposited reagents. 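One array per condition without replicates; hydroxyurea arrays received 2 mM for 16 h plus 3 h recovery.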 Reagents against one gene are numbered here.

gene | reagent | EdU z-score, cyclin E line, hydroxyurea | EdU z-score, parental, hydroxyurea | EdU z-score, cyclin E line, untreated | EdU z-score, parental, untreated
RBM38 (RNA binding motif protein 38) | 1 | -1.34 | -3.35 | -0.47 | -2.88
RBM38 (RNA binding motif protein 38) | 2 | -0.832 | -1.2 | -0.467 | 0.429
PARP4 (poly(ADP-ribose) polymerase family member 4) | 1 | -1.41 | -0.767 | -1.89 | -2.21
PARP4 (poly(ADP-ribose) polymerase family member 4) | 2 | 0.103 | 2.07 | -0.317 | 1.53
SMARCA2 | 1 | -0.554 | -1.31 | -1.62 | -0.654
SMARCA2 | 2 | 0.855 | 0.605 | 0.406 | 1.01
SUMO2 (small ubiquitin like modifier 2) | 1 | -1.05 | -0.51 | -0.669 | 0.646
SUMO2 (small ubiquitin like modifier 2) | 2 | 1.05 | 1.63 | -0.581 | 0.844
STAG2 (STAG2 cohesin complex component) | 1 | -0.638 | -3.59 | -1.38 | -2.25
STAG2 (STAG2 cohesin complex component) | 2 | -0.493 | 1.26 | -1.3 | -0.862
PARG (poly(ADP-ribose) glycohydrolase) | 1 | -0.0504 | 0.945 | -3.13 | -1.67
PARG (poly(ADP-ribose) glycohydrolase) | 2 | 0.209 | 2.73 | -2.36 | 0.583
SUMO1 (small ubiquitin like modifier 1) | 1 | -0.81 | -1.78 | -0.908 | -1.59
SUMO1 (small ubiquitin like modifier 1) | 2 | -0.776 | -1.02 | 0.57 | -0.578

Records above whose gene name starts with S or s:
gene | reagent | EdU z-score, cyclin E line, hydroxyurea | EdU z-score, parental, hydroxyurea | EdU z-score, cyclin E line, untreated | EdU z-score, parental, untreated
SMARCA2 | 1 | -0.554 | -1.31 | -1.62 | -0.654
SMARCA2 | 2 | 0.855 | 0.605 | 0.406 | 1.01
SUMO2 (small ubiquitin like modifier 2) | 1 | -1.05 | -0.51 | -0.669 | 0.646
SUMO2 (small ubiquitin like modifier 2) | 2 | 1.05 | 1.63 | -0.581 | 0.844
STAG2 (STAG2 cohesin complex component) | 1 | -0.638 | -3.59 | -1.38 | -2.25
STAG2 (STAG2 cohesin complex component) | 2 | -0.493 | 1.26 | -1.3 | -0.862
SUMO1 (small ubiquitin like modifier 1) | 1 | -0.81 | -1.78 | -0.908 | -1.59
SUMO1 (small ubiquitin like modifier 1) | 2 | -0.776 | -1.02 | 0.57 | -0.578

More records follow:
gene | reagent | EdU z-score, cyclin E line, hydroxyurea | EdU z-score, parental, hydroxyurea | EdU z-score, cyclin E line, untreated | EdU z-score, parental, untreated
BRCC3 (BRCA1/BRCA2-containing complex subunit 3) | 1 | -0.519 | -0.932 | -0.773 | 0.934
BRCC3 (BRCA1/BRCA2-containing complex subunit 3) | 2 | 2.93 | -0.321 | -0.661 | 1.34
NEIL3 (nei like DNA glycosylase 3) | 1 | -1.47 | -5.43 | -0.944 | 0.334
NEIL3 (nei like DNA glycosylase 3) | 2 | -0.632 | 1.18 | -0.926 | 0.447
LOC649445 | 1 | -1.93 | -0.597 | -1.51 | -0.322
LOC649445 | 2 | -1.48 | 0.276 | -0.211 | 0.232
FANCD2 (FA complementation group D2) | 1 | -0.76 | 0.143 | -0.959 | -0.164
FANCD2 (FA complementation group D2) | 2 | 1.01 | 1.95 | -0.679 | 0.168
CBX7 (chromobox 7) | 1 | -1.42 | -1.79 | -6.58 | -0.514
CBX7 (chromobox 7) | 2 | -0.398 | 3.66 | -2.04 | -0.0436
LIN9 (lin-9 DREAM MuvB core complex component) | 1 | -0.784 | -2.41 | -1.59 | -0.409
LIN9 (lin-9 DREAM MuvB core complex component) | 2 | 0.524 | 2.76 | -1.15 | 1.93
